Measured values as given in patent publication US10174081B2 (priority 2011, dated 2019).
End groups of sequences in plain letters are not given here.

Assay: peptide made by a vendor
Conditions: whole synthesis, TFA salt

In order of falling “purity (crude or final not stated)” value:
1. KRFKKFFKKLK-NH2  97.2%
2. KRAKKFFKKLK-NH2  94.5%
3. KRFKKFFKKLKNSVKKRFKKFFKKLKVIGVTFPF  89.7%
4. KRAKKFFKKPK-NH2  88.2%
5. KRFKKFFKKLKNSVKKRAKKFFKKPKVIGVTFPF  86.1%

Same assay, conditions: whole synthesis, TFA salt; run 1

In order of rising “purity (crude or final not stated)” value:
1. LLGDFFRKSKEKIGKEFKRIVQRIKDFLRNLVPRTES [D-LL-37]  92.0% purity
2. LLGDFFRKSKEKIGKEFKRIVQRIKDFLRNLVPRTES [LL-37]  95% purity
